Amino acid sequences for entries named in this document (tags omitted). Residues count along the entry.
UniProt Q14416, 19-872: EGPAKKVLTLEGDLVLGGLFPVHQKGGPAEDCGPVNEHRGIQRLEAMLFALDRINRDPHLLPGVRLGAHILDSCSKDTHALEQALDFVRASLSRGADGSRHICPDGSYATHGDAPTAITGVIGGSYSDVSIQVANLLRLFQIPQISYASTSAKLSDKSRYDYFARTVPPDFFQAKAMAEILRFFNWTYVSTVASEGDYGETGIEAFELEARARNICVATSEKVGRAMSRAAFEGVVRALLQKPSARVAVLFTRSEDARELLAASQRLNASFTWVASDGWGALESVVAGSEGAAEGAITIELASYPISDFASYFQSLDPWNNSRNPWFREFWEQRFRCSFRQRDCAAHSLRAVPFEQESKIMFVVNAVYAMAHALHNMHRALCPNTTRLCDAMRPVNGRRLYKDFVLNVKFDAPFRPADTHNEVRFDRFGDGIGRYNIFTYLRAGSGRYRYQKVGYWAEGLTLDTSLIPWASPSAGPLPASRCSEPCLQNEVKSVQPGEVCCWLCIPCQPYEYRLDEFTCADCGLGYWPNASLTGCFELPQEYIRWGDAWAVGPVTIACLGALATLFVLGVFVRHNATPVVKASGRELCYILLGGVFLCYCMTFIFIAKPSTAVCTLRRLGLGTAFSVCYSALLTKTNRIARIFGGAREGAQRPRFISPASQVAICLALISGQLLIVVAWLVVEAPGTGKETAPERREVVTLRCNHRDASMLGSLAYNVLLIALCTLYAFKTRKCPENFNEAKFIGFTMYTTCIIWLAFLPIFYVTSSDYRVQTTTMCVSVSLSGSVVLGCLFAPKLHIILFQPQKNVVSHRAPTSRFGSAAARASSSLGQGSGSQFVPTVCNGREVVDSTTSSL

Some of these results come from one statement about several compounds together.
These molecules were tested against T1, human mGluR2 (hmGluR2) (Homo sapiens, UniProt Q14416) (assay: Ca++ functional assay, human mGluR2 transiently over-expressed in HEK-293 cells (agonist and negative allosteric modulator modes)). Conditions: selectivity for mGluR2 over mGluR3; IC50 values from the Ca++ functional assay of Example 127.
T1 construct: expressed in transfected cells; host or cells: HEK-293 cells, transient co-transfection by electroporation
Format: cell-based
Procedure: Example 127: Human mGluR2 and mGluR3 Evaluation Using Ca^++ Functional Assay
Examples of the present invention were tested successively for their agonist and negative allosteric modulator activities on human mGluR2 (hmGluR2) and mGluR3 (hmGluR3) transiently over-expressed in HEK-293 cells.
Cell Culture and Transfection
HEK-293 cells are maintained in Modified Eagle's Medium supplemented with 10% Foetal Calf Serum, 1% Penicillin/Streptomycin and 1% non-essential amino acids at 37° C./5% CO2.
Cells are co-transfected by electroporation with four DNA plasmids encoding hmGluR2 or hmGluR3, a chimeric G protein allowing redirection of the activation signal to intracellular calcium pathway (Brabet I et al., Neuropharmacology 37(8), 1043-51, 1998), and two glutamate transporters minimizing receptor desensitization by endogenous glutamate. After transfection, cells are cultured for 24 h at 37° C./5% CO2.
Calcium Assay IC50 Determination
Receptor activity is detected by changes in intracellular calcium measured using the fluorescent Ca^2+ sensitive dye, Fluo4AM (Molecular Probes).
On the day of the assay, culture medium is aspirated and replaced during 3 hours by medium without serum supplemented with 1% Glutamax, 1% Penicillin/Streptomycin and 1% non-essential amino acids. Then, cells are washed with freshly prepared buffer B (HBSS 1×(PAA), Hepes 20 mM, MgSO4-7H2O 1 mM, Na2CO3 3.3 mM, CaCl2-2H2O 1.3 mM, 0.1% BSA, Probenecid 2.5 mM) and loaded at 37° C. in 5% CO2 for 1.5 hours with buffer B containing 1 μM Fluo4AM, 0.1 mg/mL Pluronic Acid, 7 μg/mL Glutamate Pyruvate Transaminase and 2 mM sodium pyruvate. Afterwards cells are washed twice with buffer B. Then cells are detached using StemPro Accutase (Fischer Scientific), resuspended in buffer B and seeded in 384 well plate at a density of 30,000 cells per well. Addition of compounds and intracellular Ca^2+ measurements (excitation 485 nm, emission 525 nm) are performed by the fluorescence microplate reader FLIPRTetra (Molecular Devices).
Agonist and negative allosteric modulator activities of compounds are consecutively evaluated on the same cell plate. […] Then, cells are stimulated by an EC80 glutamate concentration and fluorescence is recorded for additional 3 minutes. EC80 glutamate concentration is the concentration giving 80% of the maximal glutamate response. Agonist or negative allosteric modulator activity(ies) are evaluated in comparison to basal signals evoked by buffer B or EC80 glutamate alone, respectively.
For IC50 determination, a dose-response test is performed using 20 concentrations (ranging over 6 logs) of each compound. Dose-response curves are fitted using the sigmoidal dose-response (variable slope) analysis in GraphPad Prism program (Graph Pad Inc) and IC50 of negative allosteric modulator activity is calculated. Dose-response experiments are performed in duplicate, two times independently.
With Cn1c(=O)c2cc(Cl)ccc2n2nc(-c3ccnc(OCC(F)(F)F)c3)cc12 [Example 98, 7-Chloro-4-methyl-2-[2-(2,2,2-trifluoro-ethoxy)-pyridin-4-yl]-4H-pyrazolo[1,5-a]quinazolin-5-one] the “ratio [IC50 hmGluR3]/[IC50 hmGluR2]” value was “higher than 3”. With COc1ccc2c(c1)c(=O)n(C)c1cc(-c3ccnc(Cl)c3)nn21 [Example 99, 2-(2-Chloro-pyridin-4-yl)-7-methoxy-4-methyl-4H-pyrazolo[1,5-a]quinazolin-5-one] the “ratio [IC50 hmGluR3]/[IC50 hmGluR2]” value was “higher than 3”. In the case of COc1ccc2c(c1)c(=O)n(C)c1cc(-c3ccnc(C4CC4)c3)nn21 [Example 100, 2-(2-Cyclopropyl-pyridin-4-yl)-7-methoxy-4-methyl-4H-pyrazolo[1,5-a]quinazolin-5-one], the “ratio [IC50 hmGluR3]/[IC50 hmGluR2]” value is reported as “higher than 3”. With COc1ccc2c(c1)c(=O)n(C)c1cc(-c3ccnc(OCC(F)(F)F)c3)nn21 [Example 102, 7-Methoxy-4-methyl-2-[2-(2,2,2-trifluoro-ethoxy)-pyridin-4-yl]-4H-pyrazolo[1,5-a]quinazolin-5-one] the “ratio [IC50 hmGluR3]/[IC50 hmGluR2]” value was “higher than 3”. Cc1cc(-c2cc3n(C)c(=O)c4ccccc4n3n2)cc(Cl)n1 [Example 105, 2-(2-Chloro-6-methyl-pyridin-4-yl)-4-methyl-4H-pyrazolo[1,5-a]quinazolin-5-one] was tested, and the “ratio [IC50 hmGluR3]/[IC50 hmGluR2]” value was “higher than 3”. In the case of Cc1cc(-c2cc3n(C)c(=O)c4ccccc4n3n2)cc(C2CC2)n1 [Example 106, 2-(2-Cyclopropyl-6-methyl-pyridin-4-yl)-4-methyl-4H-pyrazolo[1,5-a]quinazolin-5-one], the “ratio [IC50 hmGluR3]/[IC50 hmGluR2]” value is reported as “higher than 3”. In the case of Cn1c(=O)c2ccccc2n2nc(-c3ccncc3Cl)cc12 [Example 108, 2-(3-Chloro-pyridin-4-yl)-4-methyl-4H-pyrazolo[1,5-a]quinazolin-5-one], the “ratio [IC50 hmGluR3]/[IC50 hmGluR2]” value is reported as “higher than 3”. With Cn1c(=O)c2ccc(C(=O)N3CC(O)C3)cc2n2nc(-c3ccnc(C(F)(F)F)c3)cc12 [Example 110, 8-(3-Hydroxy-azetidine-1-carbonyl)-4-methyl-2-(2-trifluoromethyl-pyridin-4-yl)-4H-pyrazolo[1,5-a]quinazolin-5-one] the “ratio [IC50 hmGluR3]/[IC50 hmGluR2]” value was “higher than 3”. For Cn1c(=O)c2ccc(N3CCC(O)CC3)cc2n2nc(-c3ccnc(C4CC4)c3)cc12 [Example 113, 2-(2-Cyclopropyl-pyridin-4-yl)-8-(4-hydroxy-piperidin-1-yl)-4-methyl-4H-pyrazolo[1,5-a]quinazolin-5-one], the “ratio [IC50 hmGluR3]/[IC50 hmGluR2]” value was “higher than 3”. Cn1c(=O)c2ccc(F)cc2n2nc(-c3ccnc(C(F)F)c3)cc12 [Example 114, 2-(2-Difluoromethyl-pyridin-4-yl)-8-fluoro-4-methyl-4H-pyrazolo[1,5-a]quinazolin-5-one] was tested, and the “ratio [IC50 hmGluR3]/[IC50 hmGluR2]” value was “higher than 3”. Cn1c(=O)c2ccc(N3CCC(O)CC3)cc2n2nc(-c3ccnc(C(F)F)c3)cc12 [Example 115, 2-(2-Difluoromethyl-pyridin-4-yl)-8-(4-hydroxy-piperidin-1-yl)-4-methyl-4H-pyrazolo[1,5-a]quinazolin-5-one] was tested, and the “ratio [IC50 hmGluR3]/[IC50 hmGluR2]” value was “higher than 3”. Cn1c(=O)c2ccc(F)cc2n2nc(-c3ccnc(C4CCC4)c3)cc12 [Example 116, 2-(2-Cyclobutyl-pyridin-4-yl)-8-fluoro-4-methyl-4H-pyrazolo[1,5-a]quinazolin-5-one] was tested, and the “ratio [IC50 hmGluR3]/[IC50 hmGluR2]” value was “higher than 3”. For Cn1c(=O)c2ccc(F)cc2n2nc(-c3ccnc(Cl)c3)cc12 [Example 117, 2-(2-Chloro-pyridin-4-yl)-8-fluoro-4-methyl-4H-pyrazolo[1,5-a]quinazolin-5-one], the “ratio [IC50 hmGluR3]/[IC50 hmGluR2]” value was “higher than 3”. With Cn1c(=O)c2cc(F)c(N3CC(O)C3)cc2n2nc(-c3ccnc(C(F)(F)F)c3)cc12 [Example 119, 7-Fluoro-8-(3-hydroxy-azetidin-1-yl)-4-methyl-2-(2-trifluoromethyl-pyridin-4-yl)-4H-pyrazolo[1,5-a]quinazolin-5-one] the “ratio [IC50 hmGluR3]/[IC50 hmGluR2]” value was “higher than 3”. Cn1c(=O)c2cc(F)c(OC3COC3)cc2n2nc(-c3ccnc(C(F)(F)F)c3)cc12 [Example 120, 7-Fluoro-4-methyl-8-(oxetan-3-yloxy)-2-(2-trifluoromethyl-pyridin-4-yl)-4H-pyrazolo[1,5-a]quinazolin-5-one] was tested, and the “ratio [IC50 hmGluR3]/[IC50 hmGluR2]” value was “higher than 3”. With Cn1c(=O)c2cc(F)c(NCCC#N)cc2n2nc(-c3ccnc(C(F)(F)F)c3)cc12 [Example 121, 3-[7-Fluoro-4-methyl-5-oxo-2-(2-trifluoromethyl-pyridin-4-yl)-4,5-dihydro-pyrazolo[1,5-a]quinazolin-8-ylamino]-propionitrile] the “ratio [IC50 hmGluR3]/[IC50 hmGluR2]” value was “higher than 3”. In the case of Cn1c(=O)c2cc(F)c(N3CCCC3CO)cc2n2nc(-c3ccnc(C(F)(F)F)c3)cc12 (centres unmarked) [Example 122, 7-Fluoro-8-(2-hydroxymethyl-pyrrolidin-1-yl)-4-methyl-2-(2-trifluoromethyl-pyridin-4-yl)-4H-pyrazolo[1,5-a]quinazolin-5-one], the “ratio [IC50 hmGluR3]/[IC50 hmGluR2]” value is reported as “higher than 3”. CC1CN(c2ccc3c(=O)n(C)c4cc(-c5ccnc(C(F)(F)F)c5)nn4c3c2)CC(C)O1 (centres unmarked) [Example 125, 8-(2,6-Dimethyl-morpholin-4-yl)-4-methyl-2-(2-trifluoromethyl-pyridin-4-yl)-4H-pyrazolo[1,5-a]quinazolin-5-one] was tested, and the “ratio [IC50 hmGluR3]/[IC50 hmGluR2]” value was “higher than 3”. Cc1cc(-c2cccc(C3=Nc4cc(C)c(C(F)(F)F)cc4NC(=O)C3)c2)cc(C)n1 [RO4491533, reference compound] was tested, and the “ratio [IC50 hmGluR3]/[IC50 hmGluR2]” value was < 1. With Nc1ccc(C#Cc2cnn3c(C(F)(F)F)cc(-c4ccc(C(F)(F)F)cc4)nc23)cn1 [decoglurant, reference compound] the “ratio [IC50 hmGluR3]/[IC50 hmGluR2]” value was < 1.

Source: US10221179B2, “Substituted pyrazoloquinazolinones and pyrroloquinazolinones as allosteric modulators of group II metabotropic glutamate receptors” (DOMAIN THERAPEUTICS, priority 2014, dated 2019)
